PubChem BioAssay AID1508597 – Cure First, 2020

Screen: 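Knock-downs altering ovarian cancer cell survival with or without PARP inhibitor rucaparib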 (primary screen)
System: human ovarian carcinoma lines grown from tumours: OCI-P5x (papillary serous) and OCI-C5x (clear cell)
Knock-down reagent: siRNA pool against human genes, 1.25 pmol siRNA per well
Time to read-out: 72 h or 96 h, depending on the cell culture
Conditions: rucaparib 20 µM (about IC30) or vehicle, present until read-out
Measured: 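ATP luminescence measured at 72 or 96 h according to the culture, then normalised and expressed as percent viability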
Direction: viability, normalised: higher = more viable cells remaining
Active means: 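Active when normalised viability falls below 80 percent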
Calls: active = viability under 80%; inactive = viability 80% or more
The deposit covers about 2,100 reagents; shown is an unselected part. 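Calls flag viability under 80% in either arm, not effects specific to rucaparib; the reference for percent is not stated.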 Not given: the 100% reference.

gene | rucaparib or vehicle | cell line | technical replicate | viability, normalised (%) | activity call
NEK9 (GeneID 91754) | Rucaparib | OCI-C5x (clear cell) | 1 | 59.3 | active
NEK9 (GeneID 91754) | Rucaparib | OCI-C5x (clear cell) | 2 | 74.2 | active
NEK9 (GeneID 91754) | Rucaparib | OCI-C5x (clear cell) | 3 | 55.4 | active
NEK9 (GeneID 91754) | Rucaparib | OCI-P5x (serous) | 1 | 97.9 | inactive
NEK9 (GeneID 91754) | Rucaparib | OCI-P5x (serous) | 2 | 91.4 | inactive
NEK9 (GeneID 91754) | Rucaparib | OCI-P5x (serous) | 3 | 55.7 | active
NEK9 (GeneID 91754) | Vehicle | OCI-C5x (clear cell) | 1 | 46.8 | active
NEK9 (GeneID 91754) | Vehicle | OCI-C5x (clear cell) | 2 | 50.2 | active
NEK9 (GeneID 91754) | Vehicle | OCI-C5x (clear cell) | 3 | 64.6 | active
NEK9 (GeneID 91754) | Vehicle | OCI-P5x (serous) | 1 | 83.3 | inactive
NEK9 (GeneID 91754) | Vehicle | OCI-P5x (serous) | 2 | 63.6 | active
NEK9 (GeneID 91754) | Vehicle | OCI-P5x (serous) | 3 | 70.2 | active
PARP11 (GeneID 57097) | Rucaparib | OCI-C5x (clear cell) | 1 | 40.1 | active
PARP11 (GeneID 57097) | Rucaparib | OCI-C5x (clear cell) | 2 | 43.4 | active
PARP11 (GeneID 57097) | Rucaparib | OCI-C5x (clear cell) | 3 | 33.5 | active
PARP11 (GeneID 57097) | Rucaparib | OCI-P5x (serous) | 1 | 41.5 | active
PARP11 (GeneID 57097) | Rucaparib | OCI-P5x (serous) | 2 | 48.2 | active
PARP11 (GeneID 57097) | Rucaparib | OCI-P5x (serous) | 3 | 47 | active
PARP11 (GeneID 57097) | Vehicle | OCI-C5x (clear cell) | 1 | 36.8 | active
PARP11 (GeneID 57097) | Vehicle | OCI-C5x (clear cell) | 2 | 41.3 | active
PARP11 (GeneID 57097) | Vehicle | OCI-C5x (clear cell) | 3 | 39 | active
PARP11 (GeneID 57097) | Vehicle | OCI-P5x (serous) | 1 | 43.6 | active
PARP11 (GeneID 57097) | Vehicle | OCI-P5x (serous) | 2 | 65.4 | active
PARP11 (GeneID 57097) | Vehicle | OCI-P5x (serous) | 3 | 70.2 | active
PHF6 (GeneID 84295) | Rucaparib | OCI-C5x (clear cell) | 1 | 50.7 | active
PHF6 (GeneID 84295) | Rucaparib | OCI-C5x (clear cell) | 2 | 44.3 | active
PHF6 (GeneID 84295) | Rucaparib | OCI-C5x (clear cell) | 3 | 34.1 | active
PHF6 (GeneID 84295) | Rucaparib | OCI-P5x (serous) | 1 | 42 | active
PHF6 (GeneID 84295) | Rucaparib | OCI-P5x (serous) | 2 | 51 | active
PHF6 (GeneID 84295) | Rucaparib | OCI-P5x (serous) | 3 | 56.2 | active
PHF6 (GeneID 84295) | Vehicle | OCI-C5x (clear cell) | 1 | 60.7 | active
PHF6 (GeneID 84295) | Vehicle | OCI-C5x (clear cell) | 2 | 37.1 | active
PHF6 (GeneID 84295) | Vehicle | OCI-C5x (clear cell) | 3 | 36.7 | active
PHF6 (GeneID 84295) | Vehicle | OCI-P5x (serous) | 1 | 62.1 | active
PHF6 (GeneID 84295) | Vehicle | OCI-P5x (serous) | 2 | 67.1 | active
PHF6 (GeneID 84295) | Vehicle | OCI-P5x (serous) | 3 | 60.2 | active
PDE4A (GeneID 5141) | Rucaparib | OCI-C5x (clear cell) | 1 | 52.4 | active
PDE4A (GeneID 5141) | Rucaparib | OCI-C5x (clear cell) | 2 | 42 | active
PDE4A (GeneID 5141) | Rucaparib | OCI-C5x (clear cell) | 3 | 38.3 | active
PDE4A (GeneID 5141) | Rucaparib | OCI-P5x (serous) | 1 | 55.6 | active
PDE4A (GeneID 5141) | Rucaparib | OCI-P5x (serous) | 2 | 63.3 | active
PDE4A (GeneID 5141) | Rucaparib | OCI-P5x (serous) | 3 | 55.5 | active
PDE4A (GeneID 5141) | Vehicle | OCI-C5x (clear cell) | 1 | 40.3 | active
PDE4A (GeneID 5141) | Vehicle | OCI-C5x (clear cell) | 2 | 50 | active
PDE4A (GeneID 5141) | Vehicle | OCI-C5x (clear cell) | 3 | 48.3 | active
PDE4A (GeneID 5141) | Vehicle | OCI-P5x (serous) | 1 | 71.6 | active
PDE4A (GeneID 5141) | Vehicle | OCI-P5x (serous) | 2 | 67.2 | active
PDE4A (GeneID 5141) | Vehicle | OCI-P5x (serous) | 3 | 68.9 | active

Laid out differently: 4 of the entries above
PARP11 (GeneID 57097), rucaparib or vehicle Rucaparib, cell line OCI-C5x (clear cell), technical replicate 3 | viability, normalised (%): 33.5; activity call: active
PARP11 (GeneID 57097), rucaparib or vehicle Rucaparib, cell line OCI-P5x (serous), technical replicate 1 | viability, normalised (%): 41.5; activity call: active
PARP11 (GeneID 57097), rucaparib or vehicle Rucaparib, cell line OCI-P5x (serous), technical replicate 2 | viability, normalised (%): 48.2; activity call: active
PARP11 (GeneID 57097), rucaparib or vehicle Rucaparib, cell line OCI-P5x (serous), technical replicate 3 | viability, normalised (%): 47; activity call: active
